Experimental data from patent publication US20120225019A1, “Dual Fluorescence Assay For Determining Viability Of Parasitic Or Non-Parasitic Worms” (priority 2009, published 2012).
At least one compound was matched to its structure with a doubt left.

Tests used:
[1] = test system: Schistosoma mansoni schistosomula; test: dual-fluorescence (PI/FDA) schistosomula viability assay; assay type: cell-based; settings: 10 μM, 24 hr
Protocol: Schistosoma mansoni (Puerto Rican strain) infected Biomphalaria glabrata snails were provided by Fred Lewis (Biomedical Research Institute, Rockville, Md., USA). Cercariae were shed from infected snails by exposure to light (60 min at room temperature, RT) and subsequently converted to schistosomula by mechanical transformation (Colley D G, Wikel S K (1974) Schistosoma mansoni: simplified method for the production of schistosomules. Experimental Parasitology 35: 44-51). […]
Microscope examination was used to assess the quantity and quality of purified schistosomula. […]
Stock solutions of all compounds were made up at 1 mM in appropriate solvents and stored at −80° C. […] Schistosomula were cultured (as already indicated; 37° C., 5% CO2) in the presence of each compound for 24 hr before viability levels were assessed.
After the 24 hr culturing period in the presence of test compounds, and prior to addition of fluorescent dyes, all schistosomula were washed three times to remove test compound and culture media supplements. Each wash consisted of centrifuging microtiter plates containing schistosomula at 100×g for 5 min, removal of half the old culture media and replacement with an equal quantity of fresh DMEM (lacking phenol red). […]
Numbers of live and dead schistosomula in each well of a microtiter plate were calculated using the following equations: […]

schistosomula = settings: previously published activities; cited from earlier work

## C#C[C@]1(O)CC[C@H]2[C@@H]3CCc4cc(O)ccc4[C@H]3CC[C@@]21C [ethinyl estradiol]
[1]
  schistosomula viability by dual-fluorescent viability assay: did not affect schistosomula viability
schistosomula
  previously described effect on schistosomula phenotype: induce schistosomula over-activity
